Survivor count and T/C data for 24 molecules are collected here from PubChem BioAssay AID330 (DTP/NCI, 2004).

The list does not hold the whole screen: it gathers tests that were run many times, whatever their T/C, doses with no T/C, and many T/C values between a quarter and a half above the control. Other doses and runs of a compound stand elsewhere. T/C gives the treated animals as a percentage of the vehicle group. Some doses have a count of surviving animals in place of a T/C: the source holds a T/C of zero for them, seemingly a mark for toxic or unscored doses. Some survivor counts are full or nearly so, which does not show that the dose was tolerated: the source hardly ever lists a survival T/C far under the control, and the zero likely stands for such cases as well. Counts of survivors are from the toxicity check (mostly the fifth day) where no day follows; animals may have died later. Schedules are NCI's codes, taken here to give the interval after Q, in days (D) or hours (H), and the number of doses after X. Some doses were run more than once; the results are listed from low to high. Where survival is the endpoint, the PubChem record calls one and a half times the control and up active, and a quarter to a half above the control has no call in these data; cut-offs in other NCI protocols can differ. Some T/C values carry the count of animals alive at the toxicity check (mostly the fifth day); without a count, all were alive then.

The subject of this assay is P388 leukemia ip, CD2F1 mice, survival T/C. Nature of the assay: NCI In Vivo Anticancer Drug Screen. Data for tumor model P388 Leukemia (intraperitoneal) in CD2F1 (CDF1) mice. Conditions: T/C endpoint: median survival time, higher T/C = longer survival.
The mark [1] stands for this setting: dose: 200.0 mg/kg/injection, schedule: Q01DX009 (ip), vehicle: saline.
Where [2] appears, read: dose: 200.0 mg/kg/injection, schedule: Q01DX005 (ip), vehicle: saline.
[3] abbreviates: dose: 100.0 mg/kg/injection, schedule: Q01DX009 (ip), vehicle: saline with Tween-80.
[4] abbreviates: dose: 200.0 mg/kg/injection, schedule: Q01DX009 (ip), vehicle: saline with Tween-80.
The mark [5] stands for this setting: dose: 400.0 mg/kg/injection, schedule: Q01DX001 (ip), vehicle: saline with Tween-80.

Turning to `Cc1[nH]c(=O)[nH]c(=O)c1/C=C/C(=O)NC(CO)CS(C)=O` (stereo not drawn), the survivor count (dose: 0.08 mg/kg/injection, schedule: Q01DX009 (ip), vehicle: water) is 6 of 6; the survivor count (dose: 2.5 mg/kg/injection, schedule: Q01DX009 (ip), vehicle: water) was 6 of 6; the survivor count (dose: 5.0 mg/kg/injection, schedule: Q01DX009 (ip), vehicle: water) is 6 of 6; the survivor count (dose: 10.0 mg/kg/injection, schedule: Q01DX009 (ip), vehicle: water) is reported as 6 of 6; the survivor count (dose: 20.0 mg/kg/injection, schedule: Q01DX009 (ip), vehicle: water) is 6 of 6; the survivor count (dose: 384.0 mg/kg/injection, schedule: Q01DX009 (ip), vehicle: water) is listed as 2 of 4. Further, the T/C was 133 % of control (dose: 8.0 mg/kg/injection, schedule: Q01DX009 (ip), vehicle: water); 134 % of control (dose: 16.0 mg/kg/injection, schedule: Q01DX009 (ip), vehicle: water); 137 % of control (dose: 128.0 mg/kg/injection, schedule: Q01DX009 (ip), vehicle: water); 127 and 137 % of control (dose: 256.0 mg/kg/injection, schedule: Q01DX009 (ip), vehicle: water).

Turning to `CN1CCC/C1=C/C(=O)c1ccccc1`, the survivor count (dose: 400.0 mg/kg/injection, schedule: Q04DX003 (ip), vehicle: saline) was 0 of 6.

Regarding `NN=C(c1ccc(Br)cc1)c1ccc(Br)cc1`, the survivor count reads like this: (dose: 200.0 mg/kg/injection, schedule: Q04DX002 (ip), vehicle: saline with Tween-80) 5 of 6; (dose: 400.0 mg/kg/injection, schedule: Q04DX002 (ip), vehicle: saline with Tween-80) 0 of 6.

With `Nc1ccc(N(CCCl)CCN(CCCl)c2ccc(N)cc2)cc1`, the survivor count runs as follows: (dose: 1.8 mg/kg/injection, schedule: Q01DX009 (ip), vehicle: saline sonified) 5 of 6; (dose: 10.0 mg/kg/injection, schedule: Q04DX003 (ip), vehicle: saline with Tween-80) 5 of 6; (dose: 20.0 mg/kg/injection, schedule: Q04DX003 (ip), vehicle: saline with Tween-80) 4 of 6.

On to `CC(C)(C#N)NCCNC(C)(C)C#N`, for which the survivor count (dose: 25.0 mg/kg/injection, schedule: Q01DX001 (ip), vehicle: saline) was 0 of 6 and 1 of 6; the survivor count (dose: 50.0 mg/kg/injection, schedule: Q01DX001 (ip), vehicle: saline) is listed as 0 of 6; the survivor count (dose: 100.0 mg/kg/injection, schedule: Q01DX001 (ip), vehicle: saline) is listed as 0 of 6; the survivor count (dose: 200.0 mg/kg/injection, schedule: Q01DX001 (ip), vehicle: saline) was 0 of 6; the survivor count (dose: 400.0 mg/kg/injection, schedule: Q01DX001 (ip), vehicle: saline) is reported as 0 of 6.

As to `CC(=O)Nc1cccc(N=Cc2ccc[nH]2)c1`, for the setting “dose: 400.0 mg/kg/injection, schedule: Q04DX003 (ip), vehicle: Klucel (hydroxypropylcellulose) (HPC)”, the survivor count is on record as 3 of 6.

Take `Cc1cc2nc3ccc(N=Nc4ccc(N(C)C)cc4)cc3n(-c3ccccc3)c-2cc1=N`: the T/C is 132 % of control (dose: 0.78 mg/kg/injection, schedule: Q01DX009 (ip), vehicle: saline); 134 and 141 % of control (dose: 1.56 mg/kg/injection, schedule: Q01DX009 (ip), vehicle: saline). The survivor count is listed as 1 of 6 (dose: 3.12 mg/kg/injection, schedule: Q01DX009 (ip), vehicle: saline); 0 of 6 (dose: 6.25 mg/kg/injection, schedule: Q01DX009 (ip), vehicle: saline); 0 of 6 (dose: 12.5 mg/kg/injection, schedule: Q01DX009 (ip), vehicle: saline); 0 of 6 (dose: 25.0 mg/kg/injection, schedule: Q01DX009 (ip), vehicle: saline); 0 of 6 (dose: 50.0 mg/kg/injection, schedule: Q01DX009 (ip), vehicle: saline); 0 of 6 (dose: 100.0 mg/kg/injection, schedule: Q01DX009 (ip), vehicle: saline). For the same molecule, the survivor count under setting [1] is 0 of 6.

With `CC1CN1S(=O)(=O)N1CC1C` (stereo not drawn), the T/C (dose: 10.0 mg/kg/injection, schedule: Q01DX009 (ip), vehicle: saline with Tween-80) was 145 % of control.

Turning to `CCN(CC)C(=O)c1c2nc3c(C(=O)N(CC)CC)ccc(C)c3oc-2c(C)c(=O)c1N`, the survivor count (dose: 240.0 mg/kg/injection, schedule: Q01DX005 (ip), vehicle: saline with Tween-80) is reported as 0 of 6.

For the molecule `CCN(CC)CCN1C(=O)c2cccc3cc(OC)cc(c23)C1=O`, under setting [2], the T/C is 138 and 146 % of control.

Turning to `O=c1c(Cl)c2cc3c(cc2c2ccccc12)nc1ccccc1n3-c1ccccc1`, the survivor count (dose: 100.0 mg/kg/injection, schedule: Q01DX001 (ip), vehicle: saline with Tween-80) was 6 of 6 and the survivor count (dose: 200.0 mg/kg/injection, schedule: Q01DX001 (ip), vehicle: saline with Tween-80) was 6 of 6.

On to `O=S(=O)(O)c1ccc(-c2ccc(S(=O)(=O)O)cc2)cc1` (tested in a mixture with another compound), for which the survivor count by setting is: (dose: 100.0 mg/kg/injection, schedule: Q04DX003 (ip), vehicle: saline sonified) 6 of 6; (dose: 200.0 mg/kg/injection, schedule: Q04DX003 (ip), vehicle: saline sonified) 5 of 6.

Consider `CCCCN(CCCC)CC(O)c1cc(-c2ccc(C(F)(F)F)cc2)nc(-c2ccc(C(F)(F)F)cc2)c1` (stereo not drawn), for which the survivor count is given as 6 of 6 (dose: 50.0 mg/kg/injection, schedule: Q01DX009 (ip), vehicle: saline with Tween-80); 6 of 6 under setting [3]; 4 of 6 under setting [4].

With `CCCCC(CC)OC(=O)c1cccc(C(=O)O)c1` (stereo not drawn), the survivor count under setting [5] is listed as 1 of 6.

Consider `C=CCN(CC=C)Sc1cccc([N+](=O)[O-])c1`, for which, under setting [1], the survivor count is 1 of 6.

On to `CCC1C(=O)CC(C(=O)O)C1C(=O)O` (stereo not drawn), for which the survivor count (dose: 120.0 mg/kg/injection, schedule: Q01DX005 (ip), vehicle: saline) is 6 of 6.

For the molecule `O=C1C(Cl)=C(NCCCC2CCCN3CCCCC23)C(=O)c2ccccc21` (stereo not drawn), the survivor count is 0 of 6 (dose: 200.0 mg/kg/injection, schedule: Q04DX002 (ip), vehicle: Klucel (hydroxypropylcellulose) (HPC)) and 0 of 6 (dose: 400.0 mg/kg/injection, schedule: Q04DX002 (ip), vehicle: Klucel (hydroxypropylcellulose) (HPC)).

For the molecule `N#C/C(=N\NC(=O)c1ccccc1Cl)c1ccccc1Cl`, the survivor count (dose: 200.0 mg/kg/injection, schedule: Q01DX005 (ip), vehicle: saline with Tween-80) is given as 5 of 6.

For `CCN(CC)c1ccc2nc3ccc(N=Nc4c(O)ccc5ccccc45)cc3[n+](-c3ccccc3)c2c1`, under “dose: 3.12 mg/kg/injection, schedule: Q01DX005 (ip), vehicle: saline”, the T/C was 128 % of control. The survivor count (dose: 6.25 mg/kg/injection, schedule: Q01DX005 (ip), vehicle: saline) was 4 of 6 and the survivor count (dose: 12.5 mg/kg/injection, schedule: Q01DX005 (ip), vehicle: saline) is listed as 1 of 6.

For the molecule `CC(=O)[C@@]1(O)CC[C@H]2[C@@H]3C=C(C)C4=CC(=O)CC[C@]4(C)[C@@]3(F)[C@@H](O)C[C@@]21C`, the survivor count under setting [3] is on record as 6 of 6; the survivor count under setting [4] is on record as 6 of 6; the survivor count (dose: 400.0 mg/kg/injection, schedule: Q01DX009 (ip), vehicle: saline with Tween-80) is listed as 5 of 6.

In the case of `O=C(N/N=C/c1ccccc1O)C(F)(F)F`, the survivor count under setting [4] is 6 of 6.

With `C1CCC2OCN3CCCCC3CC2C1` (stereo not drawn), the survivor count under setting [2] was 3 of 6.

Regarding `CNC1=C(C)C(=O)C(C)=C(C(C)(C)CC(=O)n2cc(F)c(=O)[nH]c2=O)C1=O`, the T/C under setting [5] was 137 % of control.

`N#CN=[N+]([O-])c1ccc(C(=O)O)cc1`: the T/C (dose: 30.0 mg/kg/injection, schedule: Q04DX003 (ip), vehicle: Klucel (hydroxypropylcellulose) (HPC)) was 128 % of control [5 of 6 alive]. In addition, for the setting “dose: 60.0 mg/kg/injection, schedule: Q04DX003 (ip), vehicle: saline with Tween-80”, the survivor count is on record as 2 of 6.
